Laboratory results published in publication PMC7160111.
These are yes or no findings as the source states them, for the method shown. For some assays here: Binding seen in cells or lysates may run through a third protein. Some entries that bind do so weakly or less than the wild type.

Chains of the proteins cited; added tags and fusions are not shown. Lines headed by an entry give the natural chain unless they say otherwise; changes in a name come on top.
UniProt P38634: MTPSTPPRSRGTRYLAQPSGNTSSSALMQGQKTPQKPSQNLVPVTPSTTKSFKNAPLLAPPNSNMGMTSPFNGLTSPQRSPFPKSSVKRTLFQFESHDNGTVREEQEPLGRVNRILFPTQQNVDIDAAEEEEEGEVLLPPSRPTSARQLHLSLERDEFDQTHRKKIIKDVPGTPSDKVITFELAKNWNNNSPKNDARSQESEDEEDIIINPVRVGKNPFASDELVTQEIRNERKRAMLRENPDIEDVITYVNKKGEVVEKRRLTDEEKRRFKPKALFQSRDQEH
UniProt P00546: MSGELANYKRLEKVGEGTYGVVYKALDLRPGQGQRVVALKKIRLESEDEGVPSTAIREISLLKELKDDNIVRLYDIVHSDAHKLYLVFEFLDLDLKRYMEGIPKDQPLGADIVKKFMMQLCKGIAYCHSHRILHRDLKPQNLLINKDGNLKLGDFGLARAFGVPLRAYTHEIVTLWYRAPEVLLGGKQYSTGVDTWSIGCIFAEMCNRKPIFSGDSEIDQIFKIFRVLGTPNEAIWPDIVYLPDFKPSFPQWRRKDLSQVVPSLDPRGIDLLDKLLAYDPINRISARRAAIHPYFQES

Key:
Clb5–TAP (S. cerevisiae) = target: T1, Clb5–TAP (S. cerevisiae) (UniProt P30283); assay: tandem affinity purification; cyclins copurified as stoichiometric complexes with active Cdk1 from a Δsic1 yeast strain
T1 sequence: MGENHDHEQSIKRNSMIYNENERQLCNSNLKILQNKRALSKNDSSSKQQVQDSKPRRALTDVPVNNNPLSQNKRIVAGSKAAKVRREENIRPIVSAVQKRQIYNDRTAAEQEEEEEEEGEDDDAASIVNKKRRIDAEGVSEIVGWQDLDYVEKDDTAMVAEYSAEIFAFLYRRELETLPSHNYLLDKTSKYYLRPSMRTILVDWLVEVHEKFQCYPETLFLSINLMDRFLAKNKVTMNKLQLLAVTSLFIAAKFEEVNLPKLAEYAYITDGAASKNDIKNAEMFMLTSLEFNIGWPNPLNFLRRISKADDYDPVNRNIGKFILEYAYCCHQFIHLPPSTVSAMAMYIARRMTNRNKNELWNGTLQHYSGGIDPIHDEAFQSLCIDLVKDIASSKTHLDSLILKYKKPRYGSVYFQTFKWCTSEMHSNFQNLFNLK

[1] = target: T173A–Sic1–6HA (S. cerevisiae) (UniProt P38634); assay: co-IP; Clb5–TAP overexpressed (GAL1 promoter, 2-μm plasmid) in strains with endogenously expressed Sic1–6HA or T173A–Sic1–6HA; purified by the TAP tag from 5–7 g of cell pellet; final eluate blotted with anti-HA and anti-Cks1

Molecule: Cdk1 (from UniProt P00546 1-298) (enzyme)
- binding (Clb5–TAP (S. cerevisiae)): binds

B1: Cks1 (protein, UniProt P20486 1-150)
chain: MYHHYHAFQGRKLTDQERARVLEFQDSIHYSPRYSDDNYEYRHVMLPKAMLKVIPSDYFNSEVGTLRILTEDEWRGLGITQSLGWEHYECHAPEPHILLFKRPLNYEAELRAATAAAQQQQQQQQQQQQQQQQHQTQSISNDMQVPPQIS
- binding [1]: no binding
